PubChem BioAssay AID504774 – Drosophila RNAi Screening Center | 2011
In all, the deposit lists about 23,000 reagents; this is an unselected part of those with a known target gene and a result. 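Values are quantile-normalised luminescence on an arbitrary scale; higher means more cells surviving MMS.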 A plus sign joins genes that one reagent is predicted to hit. Reagent sequences are not shown.

Aim: 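Genes required for cells to withstand methyl methanesulphonate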 (primary screen)
System: Drosophila Kc167 cells
Reagents: long dsRNA against Drosophila genes, about 0.25 µg dsRNA per well
Timing: about 6 days: 3 days knock-down, then 3 days with or without MMS
Challenge: methyl methanesulphonate 0.004% (w/v) for 3 days after knock-down
Detection: 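Viability in wells given MMS, read as ATP luminescence, normalised by quantiles plate by plate and averaged across replicates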
Direction: mean viability with MMS and viability with MMS: higher = more surviving cells after MMS

| target gene | dsRNA | mean viability with MMS | viability with MMS, replicate 1 | viability with MMS, replicate 2 |
| --- | --- | --- | --- | --- |
| CG31953 (retired record) + gkt | DRSC00709 | 3.50e6 | 3.87e6 | 4.05e6 |
| Ald1 | DRSC14109 | 3.46e6 | 4.01e6 | 3.86e6 |
| CG3860 | DRSC04425 | 3.46e6 | 4.09e6 | 3.92e6 |
| Ir56b | DRSC06543 | 3.50e6 | 3.90e6 | 4.02e6 |
| CG13810 | DRSC08344 | 3.73e6 | 4.07e6 | 4.28e6 |
| CG13810 | DRSC22838 | 3.52e6 | 4.07e6 | 3.93e6 |
| CG32459 | DRSC11852 | 3.70e6 | 4.17e6 | 4.14e6 |
| SCCRO4 | DRSC10671 | 3.70e6 | 4.22e6 | 4.08e6 |
| CG31109 | DRSC14648 | 3.69e6 | 4.21e6 | 4.15e6 |
| Caf1-55 | DRSC16596 | 3.39e6 | 3.83e6 | 3.83e6 |
| CG14689 | DRSC14912 | 3.53e6 | 4.00e6 | 4.03e6 |
| GstD1 | DRSC16683 | 3.70e6 | 4.11e6 | 4.15e6 |
| CG11920 | DRSC14439 | 3.34e6 | 3.86e6 | 3.74e6 |
| Adgf-A | DRSC10566 | 3.70e6 | 4.09e6 | 4.23e6 |
| CG30065 | DRSC05420 | 3.66e6 | 4.18e6 | 4.02e6 |
| RIOK2 | DRSC14413 | 3.43e6 | 3.80e6 | 3.92e6 |
| DNaseII | DRSC16310 | 3.65e6 | 4.11e6 | 4.14e6 |
| CG10814 | DRSC06004 | 3.55e6 | 4.12e6 | 3.94e6 |
| l(1)G0320 | DRSC18255 | 3.39e6 | 4.11e6 | 4.02e6 |
| Snx16 | DRSC06984 | 3.55e6 | 4.09e6 | 3.95e6 |
| CG2126 | DRSC15418 | 3.53e6 | 3.95e6 | 4.05e6 |
| prd1 | DRSC15227 | 3.42e6 | 3.97e6 | 3.85e6 |
| Oatp58Db | DRSC04364 | 3.24e6 | 3.71e6 | 3.70e6 |
| Culd | DRSC10262 | 3.56e6 | 4.03e6 | 4.06e6 |
| noc | DRSC03580 | 3.41e6 | 3.84e6 | 3.84e6 |
| Paris | DRSC00451 | 3.15e6 | 3.56e6 | 3.38e6 |
| Indy | DRSC10393 | 3.57e6 | 3.98e6 | 4.11e6 |
| CG12716 | DRSC19493 | 3.65e6 | 4.08e6 | 4.18e6 |
| bc10 | DRSC11326 | 3.60e6 | 4.06e6 | 4.11e6 |

Quoted from above (7 entries):
| target gene | dsRNA | mean viability with MMS | viability with MMS, replicate 1 | viability with MMS, replicate 2 |
| --- | --- | --- | --- | --- |
| CG30065 | DRSC05420 | 3.66e6 | 4.18e6 | 4.02e6 |
| RIOK2 | DRSC14413 | 3.43e6 | 3.80e6 | 3.92e6 |
| DNaseII | DRSC16310 | 3.65e6 | 4.11e6 | 4.14e6 |
| CG10814 | DRSC06004 | 3.55e6 | 4.12e6 | 3.94e6 |
| l(1)G0320 | DRSC18255 | 3.39e6 | 4.11e6 | 4.02e6 |
| Snx16 | DRSC06984 | 3.55e6 | 4.09e6 | 3.95e6 |
| CG2126 | DRSC15418 | 3.53e6 | 3.95e6 | 4.05e6 |

Continued:
| target gene | dsRNA | mean viability with MMS | viability with MMS, replicate 1 | viability with MMS, replicate 2 |
| --- | --- | --- | --- | --- |
| Ag5r | DRSC19327 | 3.84e6 | 4.04e6 | 4.72e6 |
| Dp | DRSC07402 | 3.24e6 | 3.75e6 | 3.66e6 |
| Acp65Aa | DRSC09663 | 3.55e6 | 3.90e6 | 4.16e6 |
| Rpn13R | DRSC18404 | 3.44e6 | 3.89e6 | 3.91e6 |
| dib | DRSC08711 | 3.58e6 | 4.02e6 | 4.10e6 |
| CG31600 | DRSC22541 | 3.78e6 | 4.18e6 | 4.24e6 |
| CG7650 | DRSC10898 | 3.57e6 | 4.11e6 | 4.05e6 |
| Df31 | DRSC03738 | 3.60e6 | 4.09e6 | 4.31e6 |
| Df31 | DRSC22163 | 3.68e6 | 4.12e6 | 4.15e6 |
| CG17490 | DRSC03794 | 3.55e6 | 4.03e6 | 4.01e6 |
| CG17490 | DRSC03797 | 3.54e6 | 4.09e6 | 3.93e6 |
| Ddr | DRSC00922 | 3.74e6 | 4.34e6 | 4.08e6 |
| Ddr | DRSC00923 | 3.44e6 | 3.93e6 | 3.91e6 |
| Ddr | DRSC02150 | 3.45e6 | 3.87e6 | 3.96e6 |
| Ddr | DRSC03229 | 3.46e6 | 3.74e6 | 3.81e6 |
| Ddr | DRSC03230 | 3.61e6 | 4.03e6 | 4.12e6 |
| Ddr | DRSC22818 | 3.75e6 | 4.52e6 | 3.94e6 |
| CG15812 | DRSC08479 | 3.46e6 | 3.88e6 | 3.98e6 |
| CG42507 + Trl | DRSC09325 | 3.35e6 | 3.78e6 | 3.86e6 |
| CG42507 + Trl | DRSC11308 | 2.76e6 | 3.56e6 | 3.57e6 |
| ERR | DRSC10840 | 3.44e6 | 3.99e6 | 3.83e6 |
| CG42697 | DRSC05740 | 3.51e6 | 3.93e6 | 4.04e6 |
| CG42375 + CG9288 | DRSC16468 | 3.40e6 | 3.85e6 | 3.82e6 |
| CG34197 (retired record) | DRSC05791 | 3.39e6 | 3.91e6 | 3.80e6 |
| Tpl94D | DRSC13593 | 3.42e6 | 3.76e6 | 3.98e6 |
| CG5011 | DRSC00039 | 3.62e6 | 4.08e6 | 4.13e6 |
| CG5011 | DRSC00674 | 3.67e6 | 4.33e6 | 4.03e6 |
| CG11380 | DRSC18632 | 3.12e6 | 3.72e6 | 3.66e6 |
| CG11380 | DRSC23223 | 3.35e6 | 3.91e6 | 3.69e6 |
| GPHR | DRSC07075 | 3.65e6 | 4.03e6 | 4.12e6 |
| Wdr59 | DRSC02771 | 3.84e6 | 4.27e6 | 4.47e6 |
| CG13157 | DRSC06282 | 3.60e6 | 4.07e6 | 4.14e6 |
| CG6610 | DRSC10674 | 3.66e6 | 4.30e6 | 4.01e6 |
| Ets97D | DRSC16665 | 3.65e6 | 4.21e6 | 4.07e6 |
| CG30472 | DRSC22245 | 3.44e6 | 3.90e6 | 3.96e6 |
| ValRS | DRSC06864 | 3.06e6 | 3.65e6 | 3.62e6 |
| Ate1 | DRSC05925 | 3.71e6 | 4.11e6 | 4.30e6 |
| Oatp33Ea | DRSC02859 | 3.32e6 | 3.84e6 | 3.63e6 |
| trbd | DRSC16494 | 3.49e6 | 3.91e6 | 3.99e6 |
